The results in this text go back to the supplement of paper PMC3334620.

Whole data set: some 33,000 sequences, median “E-score (-0.5 to 0.5)” near -0.016, cut for the highest 2% near 0.3. The list shows a part of the results.

The target of the assay is T1, Yer184c (UniProt P39961).
T1 sequence: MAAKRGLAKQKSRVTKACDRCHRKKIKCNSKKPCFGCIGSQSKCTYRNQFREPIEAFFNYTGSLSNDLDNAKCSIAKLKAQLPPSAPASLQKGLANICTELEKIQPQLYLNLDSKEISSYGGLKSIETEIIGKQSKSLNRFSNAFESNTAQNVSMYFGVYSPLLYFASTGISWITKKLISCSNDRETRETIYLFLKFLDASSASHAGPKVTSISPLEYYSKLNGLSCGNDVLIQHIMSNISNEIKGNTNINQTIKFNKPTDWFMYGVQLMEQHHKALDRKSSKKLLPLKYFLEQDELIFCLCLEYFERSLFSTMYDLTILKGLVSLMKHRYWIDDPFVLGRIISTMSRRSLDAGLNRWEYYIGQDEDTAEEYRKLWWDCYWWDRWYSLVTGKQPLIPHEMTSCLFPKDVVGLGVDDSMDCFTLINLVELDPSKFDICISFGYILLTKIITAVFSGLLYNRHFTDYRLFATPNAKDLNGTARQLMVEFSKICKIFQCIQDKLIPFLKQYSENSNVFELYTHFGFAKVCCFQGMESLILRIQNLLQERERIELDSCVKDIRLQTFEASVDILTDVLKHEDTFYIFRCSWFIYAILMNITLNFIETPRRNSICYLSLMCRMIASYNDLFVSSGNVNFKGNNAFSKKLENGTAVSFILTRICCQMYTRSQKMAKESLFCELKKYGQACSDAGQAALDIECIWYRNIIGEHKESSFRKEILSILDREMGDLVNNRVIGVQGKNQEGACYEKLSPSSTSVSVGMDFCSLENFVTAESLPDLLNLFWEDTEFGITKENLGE
Nature of the assay: PBM E-score (8-mer binding enrichment) (E-score (-0.5 to 0.5)); higher = stronger / more preferred TF binding. The conditions noted are these: protein concentration: 100 nM; construct: GST-full length. In a few lines:
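Universal all-10-mer Agilent arrays, fresh or stripped once, were converted to double-stranded form by primer extension. GST-tagged yeast transcription factors from PURExpress in vitro transcription/translation, full-length or DNA-binding domain only, were applied at about 100-200 nM and detected with fluorescent anti-GST. After masliner normalisation, the Universal PBM Analysis Suite scored each ungapped eight-base word together with its reverse complement by E-score.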
For AGGTCTAC, the “PBM E-score” value is -0.132. Take TCTCCAAA: the “PBM E-score” value came to 0.0658. With AACAACCC, the “PBM E-score” value was -0.0615.

For the sequence CTGTCCTA, the “PBM E-score” value is -0.109.

Turning to GATTCGTA, the “PBM E-score” value worked out at 0.125. Regarding ATTCGTGC, the “PBM E-score” value worked out at 0.133.

Take CATCGAAG: the “PBM E-score” value is -0.0421. Turning to AATTCTGG, the “PBM E-score” value turned out to be 0.0637. For ACTCTAAG the value was -0.232. Take CGATTGCA: the “PBM E-score” value is 0.147. As for ACTAGTCG, the “PBM E-score” value is -0.123. On to CCCCTTAG, for which the “PBM E-score” value was -0.178.

Turning to ATCAGGGA, the “PBM E-score” value is -0.288. For AAGTTGGC the value was -0.126; for ATGCTATG, -0.117; for GCTGTTCC, 0.0109. With ATCTAGTA, the “PBM E-score” value was found to be 0.189. The figure for GTCCGTAA is 0.142.

On to CCGGAGAA, for which the “PBM E-score” value was found to be 0.292. Regarding CGTGTGAC, the “PBM E-score” value is -0.00774.

Take GCCATCCA: the “PBM E-score” value is -0.043. Turning to GCACTCGA, the “PBM E-score” value is -0.0583.

In the case of CCTTGGCG, the “PBM E-score” value was -0.112. In the case of CGAATAGA, the “PBM E-score” value is -0.0142.

Turning to ACTTATTA, the “PBM E-score” value was -0.0167. The figure for CATAAGCG is -0.169; for ACCAGTTC it is -0.0613; for GAGCTTAA it is 0.0203.

With CCGGTACG, the “PBM E-score” value was -0.00725. Consider CTTCCACC, for which the “PBM E-score” value is -0.17.

Take AGGAGTAA: the “PBM E-score” value was -7e-05.

For the sequence CTCATTAC, the “PBM E-score” value was determined as 0.0262. The figure for TCCGCCAA is 0.071. Take GTTTACAA: the “PBM E-score” value turned out to be 0.178. As to GGCATGCA, the “PBM E-score” value came to 0.0578.

Turning to ACTTGCTG, the “PBM E-score” value is -0.0247. The figure for ACGGCCTC is -0.0417; for AACCCTAC it is -0.304; for ATTATACG it is 0.217.

ATGGACCC: the “PBM E-score” value was -0.132. GGCTCGTA: the “PBM E-score” value worked out at 0.0416. The figure for CAGAGTGC is -0.143.

Regarding CCCACCCC, the “PBM E-score” value was -0.129. Turning to AGCCTCTA, the “PBM E-score” value was -0.313. As to ACATCTTG, the “PBM E-score” value was -0.222. With AGATATTC, the “PBM E-score” value turned out to be 0.0187. Consider AATAAACG, for which the “PBM E-score” value came out at 0.209. Consider CATGTGTA, for which the “PBM E-score” value worked out at 0.0748. The figure for AGGCCAAG is -0.186; for AGGAGCAC it is -0.0852. As for AACAGGGA, the “PBM E-score” value came to 0.125. On to CGAATGCA, for which the “PBM E-score” value was 0.0594. As to AAGGGATC, the “PBM E-score” value was -0.0503.

For AGTCCAGA, the “PBM E-score” value was -0.0108. For AGGAGCTA, the “PBM E-score” value was -0.239. For the sequence CGGAGATA, the “PBM E-score” value worked out at 0.406. For ATCCCGTA, the “PBM E-score” value is 0.103.

CAGCACCG: the “PBM E-score” value was -0.0279.

Take ACAAATAC: the “PBM E-score” value amounted to 0.133.

As for ATCGGGAC, the “PBM E-score” value was -0.0229. On to CGTCTCCA, for which the “PBM E-score” value is 0.0836.

Regarding CCAGACAA, the “PBM E-score” value is -0.0151. For TAACCCGA the value was 0.128. In the case of TACTACGA, the “PBM E-score” value amounted to 0.0607.

With TCCTCTAA, the “PBM E-score” value was -0.0559. With TAGGGTGA, the “PBM E-score” value is -0.104. As for CTACCCTA, the “PBM E-score” value is -0.259. As to CTGAAGAC, the “PBM E-score” value is -0.0547. As to CCGAGTAA, the “PBM E-score” value is 0.302. ACGACTTA: the “PBM E-score” value is -0.212. Take GGTCACAC: the “PBM E-score” value is -0.149.

Turning to GACTGCAC, the “PBM E-score” value was -0.133. Regarding ACGAAATC, the “PBM E-score” value is 0.0389. As for GAACATGC, the “PBM E-score” value is -0.086. On to CAATCGCC, for which the “PBM E-score” value came out at 0.0488.

For the sequence AGCGATCG, the “PBM E-score” value is -0.0963.

With AATTCAAT, the “PBM E-score” value was 0.107. For the sequence ATCAGCAC, the “PBM E-score” value worked out at 0.08. In the case of AGTCGAAC, the “PBM E-score” value was -0.00875. As for CGCAAATA, the “PBM E-score” value came out at 0.144. On to CCCTCACC, for which the “PBM E-score” value is -0.284. In the case of GGGCGTCA, the “PBM E-score” value was -0.15. As for GCCGCCAA, the “PBM E-score” value was determined as 0.0315. For the sequence GATTTCAC, the “PBM E-score” value was 0.138. AAGAGGGG: the “PBM E-score” value is -0.245. For CCGCGTCG, the “PBM E-score” value worked out at 0.0671.
